Test results reported in article doi:10.1101/2021.08.25.457671.
Residue numbers refer to the chain shown, from its start. No constants are given. Whether binding was seen depends on the method and setting. Binding seen in cells or lysates may run through a third protein. Some binding calls cover weakened binding; strength is not graded here.

Amino acid sequences for entries named in this document (tags omitted).
UniProt P10591: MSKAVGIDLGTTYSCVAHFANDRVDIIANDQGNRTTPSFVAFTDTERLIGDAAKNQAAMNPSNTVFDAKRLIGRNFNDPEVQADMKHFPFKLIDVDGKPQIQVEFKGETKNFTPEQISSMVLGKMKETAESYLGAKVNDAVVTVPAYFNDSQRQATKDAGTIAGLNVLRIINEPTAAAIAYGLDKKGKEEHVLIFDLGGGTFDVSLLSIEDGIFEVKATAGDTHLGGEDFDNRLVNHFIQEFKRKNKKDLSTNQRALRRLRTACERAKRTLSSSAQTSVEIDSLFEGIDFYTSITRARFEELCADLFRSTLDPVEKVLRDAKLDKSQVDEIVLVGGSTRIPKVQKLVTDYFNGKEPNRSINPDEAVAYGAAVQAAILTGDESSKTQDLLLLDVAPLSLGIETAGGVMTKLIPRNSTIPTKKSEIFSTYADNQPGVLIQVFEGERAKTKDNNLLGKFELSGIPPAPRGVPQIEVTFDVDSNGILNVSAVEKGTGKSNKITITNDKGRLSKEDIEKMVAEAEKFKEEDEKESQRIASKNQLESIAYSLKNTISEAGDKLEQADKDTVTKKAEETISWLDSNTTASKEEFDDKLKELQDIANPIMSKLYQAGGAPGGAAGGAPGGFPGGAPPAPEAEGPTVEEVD

Experiments:
Test in all cases: co-IP
[1] = biological target: T1, Pim1 S974D (budding yeast) (UniProt P36775)
T1 sequence: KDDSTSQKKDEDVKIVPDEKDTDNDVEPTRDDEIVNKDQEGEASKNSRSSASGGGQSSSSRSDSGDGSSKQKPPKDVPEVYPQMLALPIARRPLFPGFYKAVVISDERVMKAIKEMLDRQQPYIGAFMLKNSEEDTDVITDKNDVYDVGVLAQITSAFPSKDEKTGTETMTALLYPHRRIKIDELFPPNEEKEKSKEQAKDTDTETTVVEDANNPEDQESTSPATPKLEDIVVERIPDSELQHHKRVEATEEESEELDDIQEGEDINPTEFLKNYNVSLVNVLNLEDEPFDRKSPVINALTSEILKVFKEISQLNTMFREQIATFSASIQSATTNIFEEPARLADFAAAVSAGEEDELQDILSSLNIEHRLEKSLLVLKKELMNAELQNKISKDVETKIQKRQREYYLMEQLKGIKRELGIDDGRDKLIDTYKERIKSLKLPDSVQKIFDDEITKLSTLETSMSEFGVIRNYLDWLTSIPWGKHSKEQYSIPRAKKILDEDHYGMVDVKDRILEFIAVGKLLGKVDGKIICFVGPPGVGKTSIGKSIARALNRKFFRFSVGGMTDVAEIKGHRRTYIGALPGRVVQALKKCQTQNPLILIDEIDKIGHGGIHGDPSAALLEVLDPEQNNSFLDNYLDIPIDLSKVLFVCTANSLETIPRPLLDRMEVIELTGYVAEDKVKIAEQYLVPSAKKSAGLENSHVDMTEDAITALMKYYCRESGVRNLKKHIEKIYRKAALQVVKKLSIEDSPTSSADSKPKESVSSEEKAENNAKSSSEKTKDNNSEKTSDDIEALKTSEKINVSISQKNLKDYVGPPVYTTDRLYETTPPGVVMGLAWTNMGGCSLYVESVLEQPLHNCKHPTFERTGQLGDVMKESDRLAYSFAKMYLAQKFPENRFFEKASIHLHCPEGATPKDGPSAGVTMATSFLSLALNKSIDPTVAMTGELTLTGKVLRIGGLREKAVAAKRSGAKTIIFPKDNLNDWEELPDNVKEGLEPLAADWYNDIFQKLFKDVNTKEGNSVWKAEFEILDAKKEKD

[2] = biological target: T2, Mtw1 Y86F (budding yeast) (UniProt P39731)
T2 sequence: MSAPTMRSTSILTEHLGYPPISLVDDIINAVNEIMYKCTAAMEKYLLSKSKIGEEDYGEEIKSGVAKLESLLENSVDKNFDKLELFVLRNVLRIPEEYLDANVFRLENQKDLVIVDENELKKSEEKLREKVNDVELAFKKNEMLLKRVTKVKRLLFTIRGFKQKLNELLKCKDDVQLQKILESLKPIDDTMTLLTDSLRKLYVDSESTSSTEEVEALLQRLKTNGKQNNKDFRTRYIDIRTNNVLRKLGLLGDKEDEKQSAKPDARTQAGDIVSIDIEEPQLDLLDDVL

[3] = biological target: T3, Pim1 S974A (budding yeast) (UniProt P36775)
T3 sequence: T1 sequence with D876A

[4] = biological target: T4, Ste11 R305A (non-methylatable mutant) (budding yeast) (UniProt P23561)
T4 sequence: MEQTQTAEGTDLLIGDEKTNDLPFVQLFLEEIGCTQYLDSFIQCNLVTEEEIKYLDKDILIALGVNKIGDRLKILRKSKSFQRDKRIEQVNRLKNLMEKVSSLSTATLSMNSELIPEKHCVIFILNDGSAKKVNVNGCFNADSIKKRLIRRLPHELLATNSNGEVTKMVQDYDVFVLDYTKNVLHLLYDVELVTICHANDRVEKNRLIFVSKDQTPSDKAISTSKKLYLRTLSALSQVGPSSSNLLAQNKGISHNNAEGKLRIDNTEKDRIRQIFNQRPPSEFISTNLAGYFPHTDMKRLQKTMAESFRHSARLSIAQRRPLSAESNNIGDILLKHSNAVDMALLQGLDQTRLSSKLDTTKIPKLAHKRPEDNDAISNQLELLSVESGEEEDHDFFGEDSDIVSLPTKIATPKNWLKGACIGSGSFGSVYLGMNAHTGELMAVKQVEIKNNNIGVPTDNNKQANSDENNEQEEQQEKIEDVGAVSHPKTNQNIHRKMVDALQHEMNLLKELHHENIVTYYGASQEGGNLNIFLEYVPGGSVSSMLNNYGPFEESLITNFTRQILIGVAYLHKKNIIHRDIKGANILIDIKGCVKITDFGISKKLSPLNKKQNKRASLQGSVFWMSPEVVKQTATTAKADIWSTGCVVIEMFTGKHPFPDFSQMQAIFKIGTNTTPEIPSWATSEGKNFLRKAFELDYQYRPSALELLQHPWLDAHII

Measured: binding

Ssa1 found by immunoblot in co-immunoprecipitates of client proteins from yeast (from UniProt P10591 1-642)
binds: all assays above
